# PubChem BioAssay AID2662 (National Center for Advancing Translational Sciences (NCATS), 2010)
# Chains of the proteins cited; added tags and fusions are not shown.
# UniProt Q03164, whole entry, looked up: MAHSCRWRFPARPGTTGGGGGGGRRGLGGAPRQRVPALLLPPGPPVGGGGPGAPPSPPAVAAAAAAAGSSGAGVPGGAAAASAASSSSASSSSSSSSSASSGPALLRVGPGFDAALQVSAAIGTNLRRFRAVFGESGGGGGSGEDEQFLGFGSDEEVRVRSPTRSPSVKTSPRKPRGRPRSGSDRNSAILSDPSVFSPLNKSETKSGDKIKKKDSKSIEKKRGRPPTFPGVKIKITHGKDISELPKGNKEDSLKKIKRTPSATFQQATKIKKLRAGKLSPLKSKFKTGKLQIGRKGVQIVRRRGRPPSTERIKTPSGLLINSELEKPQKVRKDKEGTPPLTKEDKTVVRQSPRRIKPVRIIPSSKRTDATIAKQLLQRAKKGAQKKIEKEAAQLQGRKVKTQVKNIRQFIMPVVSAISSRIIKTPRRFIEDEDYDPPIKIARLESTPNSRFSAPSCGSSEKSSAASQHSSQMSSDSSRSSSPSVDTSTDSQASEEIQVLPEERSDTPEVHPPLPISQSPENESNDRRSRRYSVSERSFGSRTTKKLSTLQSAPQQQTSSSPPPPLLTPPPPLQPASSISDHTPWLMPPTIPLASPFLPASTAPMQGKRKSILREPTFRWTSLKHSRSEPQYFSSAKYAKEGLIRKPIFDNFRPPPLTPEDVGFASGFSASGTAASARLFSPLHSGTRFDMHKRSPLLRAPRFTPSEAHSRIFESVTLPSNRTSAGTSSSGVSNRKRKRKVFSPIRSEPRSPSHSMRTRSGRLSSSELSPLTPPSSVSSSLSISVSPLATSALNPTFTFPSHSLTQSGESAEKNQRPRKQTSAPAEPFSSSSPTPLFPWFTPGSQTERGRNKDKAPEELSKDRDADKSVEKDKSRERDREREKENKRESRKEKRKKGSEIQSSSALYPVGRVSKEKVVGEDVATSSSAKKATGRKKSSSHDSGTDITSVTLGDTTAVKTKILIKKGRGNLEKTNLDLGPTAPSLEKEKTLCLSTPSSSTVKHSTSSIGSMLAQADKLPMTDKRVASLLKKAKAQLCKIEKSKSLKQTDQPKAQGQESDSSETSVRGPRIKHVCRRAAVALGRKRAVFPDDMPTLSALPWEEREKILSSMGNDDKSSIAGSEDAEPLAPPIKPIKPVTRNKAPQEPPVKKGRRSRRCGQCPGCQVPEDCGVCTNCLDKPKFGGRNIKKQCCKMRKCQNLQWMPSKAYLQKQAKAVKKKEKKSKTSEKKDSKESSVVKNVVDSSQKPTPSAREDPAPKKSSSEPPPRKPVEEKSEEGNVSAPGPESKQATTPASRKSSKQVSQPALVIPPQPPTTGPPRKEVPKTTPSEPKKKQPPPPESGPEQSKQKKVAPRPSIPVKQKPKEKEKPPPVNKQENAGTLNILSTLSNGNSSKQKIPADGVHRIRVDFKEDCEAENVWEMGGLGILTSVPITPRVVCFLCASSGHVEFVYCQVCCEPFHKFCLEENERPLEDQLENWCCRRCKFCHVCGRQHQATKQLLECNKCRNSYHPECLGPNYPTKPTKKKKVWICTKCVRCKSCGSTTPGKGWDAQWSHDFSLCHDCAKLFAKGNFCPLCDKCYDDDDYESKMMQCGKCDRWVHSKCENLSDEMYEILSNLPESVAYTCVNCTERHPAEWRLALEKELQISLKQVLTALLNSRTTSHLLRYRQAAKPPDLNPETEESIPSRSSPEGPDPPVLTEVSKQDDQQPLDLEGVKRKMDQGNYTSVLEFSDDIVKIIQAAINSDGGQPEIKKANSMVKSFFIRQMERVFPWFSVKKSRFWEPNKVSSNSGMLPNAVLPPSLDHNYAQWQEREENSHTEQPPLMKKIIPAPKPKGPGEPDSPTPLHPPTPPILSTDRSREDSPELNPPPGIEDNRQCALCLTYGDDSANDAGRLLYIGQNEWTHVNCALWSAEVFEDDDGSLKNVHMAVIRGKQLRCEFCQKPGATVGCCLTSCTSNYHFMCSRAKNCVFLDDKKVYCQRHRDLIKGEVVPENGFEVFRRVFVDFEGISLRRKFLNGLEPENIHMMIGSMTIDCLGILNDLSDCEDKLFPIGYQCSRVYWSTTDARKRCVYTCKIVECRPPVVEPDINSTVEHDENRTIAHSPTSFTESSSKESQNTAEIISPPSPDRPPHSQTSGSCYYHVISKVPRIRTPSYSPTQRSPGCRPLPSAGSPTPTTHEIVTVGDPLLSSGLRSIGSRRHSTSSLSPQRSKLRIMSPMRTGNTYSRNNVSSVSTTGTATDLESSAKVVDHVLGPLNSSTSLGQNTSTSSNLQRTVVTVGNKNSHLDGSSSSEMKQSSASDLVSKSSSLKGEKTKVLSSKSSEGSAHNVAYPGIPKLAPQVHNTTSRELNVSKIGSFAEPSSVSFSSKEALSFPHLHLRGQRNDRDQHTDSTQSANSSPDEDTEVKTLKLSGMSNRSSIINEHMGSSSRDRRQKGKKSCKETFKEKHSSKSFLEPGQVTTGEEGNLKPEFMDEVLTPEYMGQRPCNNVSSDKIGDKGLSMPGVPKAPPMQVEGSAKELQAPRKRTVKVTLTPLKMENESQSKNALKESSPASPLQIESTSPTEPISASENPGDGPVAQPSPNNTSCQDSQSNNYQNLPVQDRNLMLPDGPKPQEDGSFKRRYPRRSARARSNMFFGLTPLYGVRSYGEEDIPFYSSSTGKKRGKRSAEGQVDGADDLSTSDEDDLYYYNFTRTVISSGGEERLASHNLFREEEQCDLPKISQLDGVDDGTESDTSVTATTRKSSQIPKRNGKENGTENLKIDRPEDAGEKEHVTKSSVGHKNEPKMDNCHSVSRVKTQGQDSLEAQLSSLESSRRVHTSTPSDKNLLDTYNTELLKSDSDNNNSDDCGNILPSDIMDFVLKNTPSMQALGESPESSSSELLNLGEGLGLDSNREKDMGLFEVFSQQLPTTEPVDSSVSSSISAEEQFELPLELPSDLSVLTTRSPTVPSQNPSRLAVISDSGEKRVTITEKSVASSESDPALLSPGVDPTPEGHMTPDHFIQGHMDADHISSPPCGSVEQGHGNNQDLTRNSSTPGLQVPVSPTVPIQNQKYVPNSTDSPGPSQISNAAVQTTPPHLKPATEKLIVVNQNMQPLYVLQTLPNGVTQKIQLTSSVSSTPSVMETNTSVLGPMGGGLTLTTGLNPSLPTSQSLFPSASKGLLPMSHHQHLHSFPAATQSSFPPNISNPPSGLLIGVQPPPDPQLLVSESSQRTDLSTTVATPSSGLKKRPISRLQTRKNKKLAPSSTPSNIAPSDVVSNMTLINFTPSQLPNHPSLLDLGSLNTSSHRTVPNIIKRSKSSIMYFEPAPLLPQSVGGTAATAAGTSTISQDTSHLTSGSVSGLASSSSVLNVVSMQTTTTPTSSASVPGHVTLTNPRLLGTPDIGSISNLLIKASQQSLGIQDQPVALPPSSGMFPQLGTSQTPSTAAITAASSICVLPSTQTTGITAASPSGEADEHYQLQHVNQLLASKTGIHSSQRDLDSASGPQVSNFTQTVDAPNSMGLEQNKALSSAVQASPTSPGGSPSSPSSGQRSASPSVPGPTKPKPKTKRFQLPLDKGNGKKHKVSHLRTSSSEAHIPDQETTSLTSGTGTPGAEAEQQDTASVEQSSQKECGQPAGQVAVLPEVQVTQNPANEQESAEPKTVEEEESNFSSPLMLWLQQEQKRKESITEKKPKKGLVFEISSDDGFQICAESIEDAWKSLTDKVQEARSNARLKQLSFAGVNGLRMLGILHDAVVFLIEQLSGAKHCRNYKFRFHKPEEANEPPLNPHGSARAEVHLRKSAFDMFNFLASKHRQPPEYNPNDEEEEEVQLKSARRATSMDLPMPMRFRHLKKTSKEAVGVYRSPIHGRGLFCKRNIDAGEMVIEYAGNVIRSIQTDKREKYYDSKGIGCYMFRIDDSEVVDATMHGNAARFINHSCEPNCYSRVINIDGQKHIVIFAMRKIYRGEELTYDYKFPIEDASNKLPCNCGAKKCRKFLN
# The campaign covered roughly 290,000 compounds. About 110 (0.038%) were called active. Inconclusive results, whose numbers are uncertain, are shown with a selection of clear calls. Calls follow the shape of the dose curve; as a rule, active = well fitted inhibition curve with a large enough effect in the polarisation, with a control signal flat (not every such curve was filed as active); inconclusive = small, poorly fitted or top-dose-only effect, or effect the other way, or a change in a side signal; inactive = no such curve, though single readings can be large or run the other way; the % refers to the polarisation. Potencies beside an inconclusive call are fits to weak or partial responses and may not hold up. “Side channel” marks fits to a control or component signal instead of the main read-out.
# Molecular target: Histone-lysine N-methyltransferase 2A (Homo sapiens) (UniProt Q03164)
# Experiment: qHTS Fluorescence Polarization Assay for Inhibitors of MLL CXXC domain - DNA interaction
# Details: MLL-CXXC / FITC-HOXA9 DNA fluorescence polarization; activity change, negative = inhibition: at 115 µM (top of the series)
# Outline: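 Purified MLL-CXXC (added from a 7 uM solution) was preincubated 5 min at ambient with pinned compounds in 50 mM Tris-HCl pH 7.5, 50 mM NaCl, 1 mM DTT, 0.05% BSA. Fluorescein-labeled HOX-A9 DNA (50 nM solution) followed, 30 min, then polarization read.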
# Potency is read from the fitted curve at half-maximal effect.
Structure (SMILES),"activity change, negative = inhibition",Potency
COc1ccc(C(=O)NCCCn2ccnc2)cc1[N+](=O)[O-],inconclusive: -33.1% [inhibitor],
Cc1nn(-c2ccccc2)c(N2CCCC2)c1/C=C1\N=C(c2ccccc2)OC1=O,,"inconclusive: 89.1 µM [inhibitor, single point]"
COn1c(=O)c(-c2ccc(C)cc2)[n+]([O-])c2ccccc21,,"inconclusive: 11.2 µM [inhibitor, single point]"
O=C(O)CCCN1C(=O)/C(=C/c2cn(-c3ccccc3)nc2-c2cccs2)SC1=S,,"inconclusive: 70.8 µM [fluorescent, side channel, single point]"
CCCCCCCCCCCCCC[N+](C)(C)C,inactive: 0.0581%,
CC(=O)c1ccccc1OCC(O)CN1CCN(C(c2ccccc2)c2ccccc2)CC1 (centres undefined),,"inconclusive: 11.2 µM [quencher, side channel, partial curve, poor fit]"
O=C(CN(Cc1ccco1)C(=O)CNS(=O)(=O)c1ccc(F)cc1)NCc1ccccc1,inactive: 0.596%,
CCC(C(=O)NCc1ccco1)N(C(=O)CNS(=O)(=O)c1ccccc1)c1ccc(OC)cc1 (centres undefined),,"inconclusive: 35.5 µM [inhibitor, single point]"
Cc1ccc(NC(=O)CSC2=C(C#N)C(c3ccco3)C3=C(CCCC3=O)N2)cc1 (centres undefined),inactive: -6.45%,
COC(=O)C1=C(C)N(Cc2ccccc2)C(=NCCCCO)N[C@H]1CCc1ccccc1,,"inconclusive: 31.6 µM [quencher, side channel, partial curve]"
CCN1CCN(Cc2c(O)ccc3c2O/C(=C\c2ccccc2)C3=O)CC1,,"inconclusive: 39.8 µM [fluorescent, side channel, single point]"
CCOC(=O)c1c(NC(=O)Cc2ccccc2)sc2c1CC(C)(C)NC2(C)C,,"inconclusive: 25.1 µM [quencher, side channel, partial curve]"
CCC(C)(C(=O)NC1CCCCC1)N(C(=O)c1cnccn1)c1c(C)n(C)n(-c2ccccc2)c1=O (centres undefined),,"inconclusive: 44.7 µM [inhibitor, partial curve, poor fit]"
CCOC(=O)/C=C/C(=O)OCC(=O)Nc1ccc(OC)c(Cl)c1,inactive: -5.06%,
O=C(c1cnc2ccc(Cl)cc2c1Cl)N1CCOCC1,inactive: -5.86%,
CC1(C)CC(=O)C(C=Nc2ccc(N)cc2)=C(O)C1,,"inconclusive: 15.8 µM [quencher, side channel, single point]"
CC1CC(C)CN(S(=O)(=O)c2ccc3oc(=O)ccc3c2)C1 (centres undefined),inactive: 11%,
Cc1ccc(S(=O)(=O)CCC(=O)NCCc2ccc(Cl)cc2)cc1,,"inconclusive: 44.7 µM [fluorescent, side channel, single point]"
COc1cc(/C=c2\s/c(=C(/C#N)C(=O)N3CCCC3)n(-c3ccccc3)c2=O)ccc1O,,"inconclusive: 44.7 µM [fluorescent, side channel, partial curve]"
CS(=O)(=O)N1CCN(C(=O)c2cc(-c3cccs3)nc3ccccc23)CC1,inactive: -2.61%,
O=C(Nc1ccc(Cc2ccncc2)cc1)C1CCC(N2C(=O)C3CC=CCC3C2=O)CC1 (centres undefined),,"inconclusive: 63.1 µM [inhibitor, single point]"
O=C(NC(=S)Nc1ccc(N2CCOCC2)cc1)c1ccco1,,"inconclusive: 10 µM [fluorescent, side channel, full curve, poor fit]"

# Some of the entries so far, tab-delimited:
Structure (SMILES)	activity change, negative = inhibition	Potency
COc1ccc(C(=O)NCCCn2ccnc2)cc1[N+](=O)[O-]	inconclusive: -33.1% [inhibitor]	
Cc1nn(-c2ccccc2)c(N2CCCC2)c1/C=C1\N=C(c2ccccc2)OC1=O		inconclusive: 89.1 µM [inhibitor, single point]
COn1c(=O)c(-c2ccc(C)cc2)[n+]([O-])c2ccccc21		inconclusive: 11.2 µM [inhibitor, single point]
O=C(O)CCCN1C(=O)/C(=C/c2cn(-c3ccccc3)nc2-c2cccs2)SC1=S		inconclusive: 70.8 µM [fluorescent, side channel, single point]
CCCCCCCCCCCCCC[N+](C)(C)C	inactive: 0.0581%	
CC(=O)c1ccccc1OCC(O)CN1CCN(C(c2ccccc2)c2ccccc2)CC1 (centres undefined)		inconclusive: 11.2 µM [quencher, side channel, partial curve, poor fit]
O=C(CN(Cc1ccco1)C(=O)CNS(=O)(=O)c1ccc(F)cc1)NCc1ccccc1	inactive: 0.596%	
CCC(C(=O)NCc1ccco1)N(C(=O)CNS(=O)(=O)c1ccccc1)c1ccc(OC)cc1 (centres undefined)		inconclusive: 35.5 µM [inhibitor, single point]
Cc1ccc(NC(=O)CSC2=C(C#N)C(c3ccco3)C3=C(CCCC3=O)N2)cc1 (centres undefined)	inactive: -6.45%	
COC(=O)C1=C(C)N(Cc2ccccc2)C(=NCCCCO)N[C@H]1CCc1ccccc1		inconclusive: 31.6 µM [quencher, side channel, partial curve]
CCN1CCN(Cc2c(O)ccc3c2O/C(=C\c2ccccc2)C3=O)CC1		inconclusive: 39.8 µM [fluorescent, side channel, single point]
CCOC(=O)c1c(NC(=O)Cc2ccccc2)sc2c1CC(C)(C)NC2(C)C		inconclusive: 25.1 µM [quencher, side channel, partial curve]
CCC(C)(C(=O)NC1CCCCC1)N(C(=O)c1cnccn1)c1c(C)n(C)n(-c2ccccc2)c1=O (centres undefined)		inconclusive: 44.7 µM [inhibitor, partial curve, poor fit]

# More structures

Structure (SMILES),"activity change, negative = inhibition",Potency
COc1ccccc1Oc1ccc2c(c1)C(=O)N(CC(=O)O)C2=O,,"inconclusive: 44.7 µM [fluorescent, side channel, partial curve]"
COc1ccc(C=O)c(OC)c1,inactive: 10.2%,
Cn1c2ccccc2c2cc(/C=N/NC(=O)c3ccccc3F)ccc21,,"inconclusive: 6.31 µM [activator, full curve]"
Cc1ccnc(NC(=O)CNC(=O)c2ccccc2Br)c1,inactive: -6.31%,
COc1cc(/C=C/C(=O)OCC(=O)NCc2ccco2)ccc1OCC#N,,"inconclusive: 3.55 µM [fluorescent, side channel, full curve]"
CC(/C=N/NC(=O)c1cccc(F)c1)=C\c1ccccc1,,"inconclusive: 10 µM [quencher, side channel, partial curve]"
CCOc1ccc2nc3cc(N)ccc3c(N)c2c1,inactive: -28.5%,
CC(=O)c1cccc(N2Cc3ccccc3C2=NC(=O)CCl)c1,,"inconclusive: 17.8 µM [fluorescent, side channel, partial curve]"
Cc1ccc(S(=O)(=O)/N=C2/NC(=O)/C(=C/c3cccnc3)S2)cc1,,"inconclusive: 6.31 µM [inhibitor, full curve]"
CC(C)c1ccc(NC(=O)NC(C)c2ccc3c(c2)OCO3)cc1 (centres undefined),,"inconclusive: 11.2 µM [fluorescent, side channel, single point]"
CCN(CC)CCNc1ccc(CO)c2sc3ccccc3c(=O)c12,,"inconclusive: 31.6 µM [quencher, side channel, partial curve]"
COc1cc(/C=C/C(=O)c2c(O)ccc3c(C)cc(=O)oc23)ccc1O,,"inconclusive: 3.98 µM [inhibitor, full curve, poor fit]"
CCN(CC)c1ccc(S(=O)(=O)N2CCOCC2)cc1NC(=O)CN1C(=O)NC2(CCCC2)C1=O,,"inconclusive: 7.08 µM [fluorescent, side channel, single point]"
COc1ccccc1OCC(=O)Nc1ccc(S(=O)(=O)N(C)c2ccccc2)cc1,,"inconclusive: 14.1 µM [fluorescent, side channel, single point]"
Cc1ccc(OCc2cc(C(=O)N(C)CC3CCOCC3)no2)cc1C,,"inconclusive: 14.1 µM [fluorescent, side channel, single point]"
CCc1nnc(NC(=O)CSc2nncc(=O)n2N)s1,,"inconclusive: 11.2 µM [quencher, side channel, single point]"
Cn1nc(-c2ccccn2)nc2c(=O)n(C)c(=O)nc1-2,,"inconclusive: 12.6 µM [inhibitor, full curve]"
N#Cc1c(N)sc(=S)c2c1CCCCC2,inactive: -13.4%,
Cc1ccc(C)c(SCC(=O)OCC(=O)N2CC(C)OC(C)C2)c1 (centres undefined),inactive: -9.87%,
CCc1cc(=O)oc2cc(OC3CCCCC3=O)ccc12 (centres undefined),,"inconclusive: 7.94 µM [fluorescent, side channel, full curve]"
N[C@@H](Cc1ccc(O)cc1)C(=O)O,inactive: 4.43%,
CC/C(=N\Nc1ccc([N+](=O)[O-])cc1)c1ccccc1,,"inconclusive: 2.24 µM [fluorescent, side channel, full curve]"

Structure (SMILES),"activity change, negative = inhibition",Potency
CCCCOc1ccc(C(=O)NNC(=S)NC(=O)CC)cc1,,"inconclusive: 10 µM [inhibitor, single point]"
COC(=O)c1c(S(N)(=O)=O)c2ccccc2n1C,inactive: -3.84%,
CN(NS(=O)(=O)c1ccc(Br)cc1)c1nc(C(F)(F)F)nc2ccccc12,inactive: 8.94%,
COc1ccccc1OCCCOc1ccc(/C=C2\SC(=O)NC2=O)cc1OC,,"inconclusive: 35.5 µM [inhibitor, partial curve]"
CCCCC[C@H](O)/C=C/[C@@H]1[C@@H](C/C=C\CCCC(=O)OC)[C@@H](O)C[C@H]1O,inactive: -21.6%,
N#Cc1c(-c2cccs2)cc(-c2cccnc2)nc1N,inactive: -9.59%,
Cc1nc(Nc2ccncc2)c2oc3ccccc3c2n1,,"inconclusive: 50.1 µM [inhibitor, single point]"
C#CCOCCOCCOCCNc1nc(N2CCN(C(=O)[C@H]([C@@H](C)CC)n3cc([C@@H](N)CO)nn3)CC2)nc(N2CCN(C(=O)[C@H]([C@@H](C)CC)n3cc([C@@H](N)CO)nn3)CC2)n1,,"inconclusive: 1.41 µM [fluorescent, side channel, full curve]"
CCOC(=O)C1CCN(CCC(=O)Nc2cccc(C)c2)CC1,,"inconclusive: 8.91 µM [inhibitor, full curve, poor fit]"
Oc1oc(-c2ccccc2)nc1C=Nc1cccc2ccccc12,,"inconclusive: 70.8 µM [fluorescent, side channel, single point]"
CCN(CC1CCCO1)C(=O)C1CCN(C2CCN(Cc3ccccc3C)CC2)CC1 (centres undefined),,"inconclusive: 31.6 µM [fluorescent, side channel, partial curve]"
O=C1N/C(=N\N=C\c2cccs2)SC1Cc1ccc(Cl)c(Cl)c1 (centres undefined),,"inconclusive: 7.94 µM [fluorescent, side channel, full curve, poor fit]"
Cc1ccc(C(=O)N[C@H](C(=O)Nc2ccc(F)cc2)C(C)C)cc1,,"inconclusive: 63.1 µM [inhibitor, single point]"
O=C(Cc1ccc(F)cc1)N1CCN(c2ccc([N+](=O)[O-])cc2)CC1,inactive: 18.6%,
O=C(CSc1ccc(Cl)cc1)Nc1cccc(-c2nnc(-c3ccco3)o2)c1,,"inconclusive: 70.8 µM [inhibitor, single point]"
COC(=O)c1ccccc1NC(=O)NCCc1ccccc1OC,,"inconclusive: 89.1 µM [inhibitor, single point]"
CN1CCN(c2ccc(NC(=O)c3ccc(-c4ccc(Br)cc4)o3)cc2)CC1,inactive: -0.797%,
CC(CCc1ccccc1)NC(=O)COC(=O)c1ccc([N+](=O)[O-])cc1 (centres undefined),,"inconclusive: 12.6 µM [inhibitor, single point]"
COC(=O)/C=C1\SC(=NC(=O)c2ccc(OC)cc2)NC1=O,,"inconclusive: 70.8 µM [fluorescent, side channel, partial curve]"
COc1cccc(CN2C(=O)C(C)N(C(=O)c3ccccc3)c3ccccc32)c1 (centres undefined),,"inconclusive: 11.2 µM [fluorescent, side channel, single point]"
